PubChem BioAssay AID504793 – Drosophila RNAi Screening Center, 2011
In all, the deposit lists about 23,000 reagents; shown is an unselected part of those that have a named target and a result. In the full data, 62 (0.27%) were called active. 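Calls come from follow-up tests whose scores are not deposited, so confirmed genes may have low counts here; counts are not normalised per plate.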 Raw values vary from plate to plate and are shown uncorrected. Names joined by + are all predicted targets of the reagent.

Test: 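Knock-downs allowing continued mitosis even though DNA is damaged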 (primary screen)
Cells: Drosophila S2R+ cells
Knock-down reagent: long dsRNA against Drosophila genes, about 0.25 µg dsRNA per well
Timing: 4 days of dsRNA, then 4 hours of drug before read-out
Treatment: doxorubicin 0.5 µM for 4 hours to cause double-strand breaks, in cells also given a low, harmless dose of dsRNA against nbs to sensitise the assay
Detection: 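Mitotic index as the number of phospho-histone H3-positive cells in each well following doxorubicin, given as raw counts without normalisation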
Scale: mitotic cells: higher = more cells in mitosis, weaker G2 arrest
Call rule: 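Genes are called active only when high mitotic counts were reproduced with independent dsRNAs and mitosis was checked for delay without damage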
Calls: active = confirmed in follow-up tests; inactive = not confirmed

gene knocked down | DRSC id | mitotic cells, replicate 1 | outcome
Scsalpha1 (GeneID 38447) | DRSC08698 | 6 | inactive
Scsalpha1 (GeneID 38447) | DRSC26856 | 1 | inactive
CG8389 (GeneID 36764) | DRSC07158 | 12 | inactive
CG8389 (GeneID 36764) | DRSC22855 | 11 | inactive
CG8389 (GeneID 36764) | DRSC28233 | 5 | inactive
Erasp (GeneID 246448) | DRSC07111 | 2 | inactive
Syx7 (GeneID 36173) | DRSC11763 | 7 | inactive
CG14177 (retired record) (GeneID 39113) | DRSC10176 | 5 | inactive
CG14177 (retired record) (GeneID 39113) | DRSC27883 | 10 | inactive
Send2 (GeneID 34836) | DRSC01906 | 2 | inactive
CG6414 (GeneID 31352) | DRSC18401 | 13 | inactive
CG6454 (GeneID 42904) | DRSC16044 | 2 | inactive
CG6454 (GeneID 42904) | DRSC24613 | 2 | inactive
CG13138 (GeneID 34381) | DRSC02235 | 3 | inactive
CG2225 (GeneID 35421) | DRSC03722 | 6 | inactive
CG2225 (GeneID 35421) | DRSC03723 | 7 | inactive
CG15403 (GeneID 33527) | DRSC00417 | 3 | inactive
NijC (GeneID 41568) | DRSC14851 | 9 | inactive
NijC (GeneID 41568) | DRSC29054 | 7 | inactive
C901 (GeneID 32032) | DRSC19351 | 14 | inactive
C901 (GeneID 32032) | DRSC28397 | 4 | inactive
CG9512 (GeneID 32419) | DRSC20189 | 6 | inactive
CG14332 (GeneID 42098) | DRSC14811 | 9 | inactive
Cbs (GeneID 33081) | DRSC20553 | 4 | inactive
CG18538 (GeneID 37095) | DRSC06765 | 10 | inactive
sds22 (GeneID 42091) | DRSC17052 | 7 | inactive
CG14989 (GeneID 38485) | DRSC08448 | 9 | inactive
CG14989 (GeneID 38485) | DRSC25585 | 12 | inactive
gogo (GeneID 40225) | DRSC10070 | – | inactive
gogo (GeneID 40225) | DRSC10071 | 7 | inactive
Ugt305A1 (GeneID 59217) | DRSC08541 | 5 | inactive
Ugt305A1 (GeneID 59217) | DRSC26426 | 4 | inactive
CG14829 (GeneID 38792) | DRSC10199 | 6 | inactive
Ggt-1 (GeneID 32839) | DRSC19993 | 4 | inactive
Ggt-1 (GeneID 32839) | DRSC27144 | 7 | inactive
CG30428 (GeneID 246608) | DRSC04041 | 5 | inactive
CG30428 (GeneID 246608) | DRSC28228 | 2 | inactive
CG32099 (GeneID 317852) | DRSC21352 | 18 | inactive
CG5819 (GeneID 37547) | DRSC04520 | 5 | inactive
CG5819 (GeneID 37547) | DRSC28265 | 6 | inactive
Dso1 (GeneID 50126) | DRSC21815 | 12 | inactive
Dso1 (GeneID 50126) | DRSC29771 | 3 | inactive
Cyp6a22 (GeneID 49847) | DRSC07382 | 7 | inactive
Cyp6a22 (GeneID 49847) | DRSC24011 | 4 | inactive
CG14537 (GeneID 34072) | DRSC02395 | 3 | inactive
dos (GeneID 38321) | DRSC07992 | 3 | inactive
dos (GeneID 38321) | DRSC08713 | 7 | inactive
dos (GeneID 38321) | DRSC23285 | 15 | inactive
CG11927 (GeneID 33687) | DRSC00337 | 6 | inactive
Ir7e (GeneID 7354417) | DRSC18011 | 8 | inactive
CG3847 (GeneID 31577) | DRSC17444 | 17 | inactive
CG3847 (GeneID 31577) | DRSC18327 | 27 | inactive
CG3847 (GeneID 31577) | DRSC26193 | 12 | inactive
CG14982 (GeneID 38464) | DRSC23022 | 10 | inactive
Lim3 (GeneID 35184) | DRSC23034 | 12 | inactive
Lim3 (GeneID 35184) | DRSC28555 | 1 | inactive
PolI (GeneID 40965) | DRSC16267 | 6 | inactive
CG17010 (GeneID 34650) | DRSC02559 | 3 | inactive
CG17010 (GeneID 34650) | DRSC29558 | 8 | inactive
AGO3 (GeneID 3355150) | DRSC21386 | 12 | inactive
CG6527 (GeneID 39197) | DRSC10659 | 6 | inactive
Top3beta (GeneID 31565) | DRSC18724 | 3 | inactive
elm (GeneID 40695) | DRSC12309 | 7 | inactive
CG7264 (GeneID 39339) | DRSC10793 | 2 | inactive
CG7264 (GeneID 39339) | DRSC26046 | 1 | inactive
stmA (GeneID 35865) | DRSC07593 | 3 | inactive
stmA (GeneID 35865) | DRSC22179 | 7 | inactive
RhoBTB (GeneID 40249) | DRSC11877 | 7 | inactive
DopEcR (GeneID 38539) | DRSC08529 | 2 | inactive
Toll-7 (GeneID 37272) | DRSC07563 | 2 | inactive
Toll-7 (GeneID 37272) | DRSC29640 | 10 | inactive
noc (GeneID 34847) | DRSC24997 | 10 | inactive
fd3F + CG42499 (retired record) | DRSC18160 | 11 | inactive
fd3F + CG42499 (retired record) | DRSC18161 | 8 | inactive
fd3F + CG42499 (retired record) | DRSC28554 | 7 | inactive

10 entries from above, set out differently:
dos (GeneID 38321) [DRSC08713]
- mitotic cells, replicate 1: 7
- outcome: inactive

dos (GeneID 38321) [DRSC23285]
- mitotic cells, replicate 1: 15
- outcome: inactive

CG11927 (GeneID 33687) [DRSC00337]
- mitotic cells, replicate 1: 6
- outcome: inactive

Ir7e (GeneID 7354417) [DRSC18011]
- mitotic cells, replicate 1: 8
- outcome: inactive

CG3847 (GeneID 31577) [DRSC17444]
- mitotic cells, replicate 1: 17
- outcome: inactive

CG3847 (GeneID 31577) [DRSC18327]
- mitotic cells, replicate 1: 27
- outcome: inactive

CG3847 (GeneID 31577) [DRSC26193]
- mitotic cells, replicate 1: 12
- outcome: inactive

CG14982 (GeneID 38464) [DRSC23022]
- mitotic cells, replicate 1: 10
- outcome: inactive

Lim3 (GeneID 35184) [DRSC23034]
- mitotic cells, replicate 1: 12
- outcome: inactive

Lim3 (GeneID 35184) [DRSC28555]
- mitotic cells, replicate 1: 1
- outcome: inactive
